These are yes or no findings as the source states them, for the method shown. Tags and fused reporters may be left off the sequences shown.
T1: recombinant RNA-… RNA POLYMERASE 2 (RDR2), wild type, with N-terminal V5 epitope and 6xHis tags (A. thaliana) (UniProt O82504)
T1 sequence: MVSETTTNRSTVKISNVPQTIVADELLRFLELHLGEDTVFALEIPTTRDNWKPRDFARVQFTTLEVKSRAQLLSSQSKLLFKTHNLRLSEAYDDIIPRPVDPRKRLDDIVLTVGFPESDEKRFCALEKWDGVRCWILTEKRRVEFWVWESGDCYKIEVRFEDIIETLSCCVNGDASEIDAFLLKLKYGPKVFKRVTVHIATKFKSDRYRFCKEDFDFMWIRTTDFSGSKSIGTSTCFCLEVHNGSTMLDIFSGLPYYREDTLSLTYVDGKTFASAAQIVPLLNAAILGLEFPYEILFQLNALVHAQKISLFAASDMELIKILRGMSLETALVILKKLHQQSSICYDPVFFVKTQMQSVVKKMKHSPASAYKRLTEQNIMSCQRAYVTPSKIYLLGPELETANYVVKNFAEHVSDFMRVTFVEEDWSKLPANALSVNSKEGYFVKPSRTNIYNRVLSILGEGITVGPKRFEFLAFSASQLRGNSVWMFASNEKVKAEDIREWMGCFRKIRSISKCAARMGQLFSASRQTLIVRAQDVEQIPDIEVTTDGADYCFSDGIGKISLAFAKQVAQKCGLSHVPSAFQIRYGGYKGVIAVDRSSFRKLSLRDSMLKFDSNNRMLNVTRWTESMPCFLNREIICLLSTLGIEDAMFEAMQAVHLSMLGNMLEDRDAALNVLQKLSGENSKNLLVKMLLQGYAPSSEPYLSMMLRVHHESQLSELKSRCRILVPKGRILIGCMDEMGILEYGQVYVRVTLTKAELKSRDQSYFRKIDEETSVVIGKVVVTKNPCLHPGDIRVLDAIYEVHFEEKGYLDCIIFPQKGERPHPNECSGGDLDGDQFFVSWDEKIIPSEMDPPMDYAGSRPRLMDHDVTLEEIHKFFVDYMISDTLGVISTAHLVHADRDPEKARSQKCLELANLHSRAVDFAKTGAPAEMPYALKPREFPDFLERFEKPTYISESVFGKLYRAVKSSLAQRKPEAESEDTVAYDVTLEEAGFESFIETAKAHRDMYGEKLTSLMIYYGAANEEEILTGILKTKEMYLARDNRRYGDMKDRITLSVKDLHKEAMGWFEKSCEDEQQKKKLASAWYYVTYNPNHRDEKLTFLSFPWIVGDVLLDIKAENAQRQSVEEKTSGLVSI

T2: RDR2 peptide 9 of the RDR2_(771–970) peptide array (A. thaliana) (UniProt O82504)
T2 sequence (peptide): PPMDYAGSRPRLMDH

T3: RDR2 peptide 13 of the RDR2_(771–970) peptide array (A. thaliana) (UniProt O82504)
T3 sequence (peptide): AHLVHADRDPEKARS

B1: recombinant RNA-… RNA POLYMERASE 2 (RDR2), wild type, with N-terminal V5 epitope and 6xHis tags (enzyme, UniProt O82504 1-1133)
chain: T1 sequence
B2: recombinant NRPD1_(1–300) with His and FLAG tags, made in E. coli (domain or fragment, A. thaliana, UniProt Q9LQ02 1-300, looked up)
chain: MEDDCEELQVPVGTLTSIGFSISNNNDRDKMSVLEVEAPNQVTDSRLGLPNPDSVCRTCGSKDRKVCEGHFGVINFAYSIINPYFLKEVAALLNKICPGCKYIRKKQFQITEDQPERCRYCTLNTGYPLMKFRVTTKEVFRRSGIVVEVNEESLMKLKKRGVLTLPPDYWSFLPQDSNIDESCLKPTRRIITHAQVYALLLGIDQRLIKKDIPMFNSLGLTSFPVTPNGYRVTEIVHQFNGARLIFDERTRIYKKLVGFEGNTLELSSRVMECMQYSRLFSETVSSSKDSANPYQKKSDT
notes: NRPD1, A. thaliana, amino acids 1-300 of 1,453; More in SI Appendix, Methods; also called NRPD1_(1–300)-FLAG; FLAG-tagged NRPD1_(1–300); source: E. coli (pET28 vector), purified (nickel-NTA by the methods; by its C-terminal FLAG tag by the results); not shown: FLAG, C-terminal, kept

Tests used:
[1] = target: T1, recombinant RNA-… RNA POLYMERASE 2 (RDR2), wild type, with N-terminal V5 epitope and 6xHis tags (A. thaliana); experiment: SEC; analytical gel filtration, Superdex 200 10/300 GL, 4 °C, 50 mM Hepes-KOH pH 7.5, 150 mM NaCl, mass estimated against protein standards; both purified
[2] = target: T2, RDR2 peptide 9 of the RDR2_(771–970) peptide array (A. thaliana); experiment: peptide or protein array; synthetic peptides (10 ng) dot-blotted onto nitrocellulose, probed with about 200 ng NRPD1_(1–300)-FLAG or RDR2_(771–970)-HA in 8 mL 50 mM Hepes-KOH pH 7.5, 100 mM NaCl, room temperature, 1 h; anti-FLAG-HRP or anti-HA-HRP, chemiluminescence; both purified
[3] = target: T3, RDR2 peptide 13 of the RDR2_(771–970) peptide array (A. thaliana); experiment: as above

Binder | binding [1] | binding [2] | binding [3]
B1 | no binding | – | –
B2 | – | no binding | no binding

— article PMC8020760, “Assembly of a dsRNA synthesizing complex: RNA-DEPENDENT RNA POLYMERASE 2 contacts the largest subunit of NUCLEAR RNA POLYMERASE IV” (Proceedings of the National Academy of Sciences of the …, 2021)
